Measurements as given in PMC4164784, “4E-BPs require non-canonical 4E-binding motifs and a lateral surface of eIF4E to repress translation” (Nature Communications, 2014).
Results are given in words; binding and its absence hold for the method and conditions named. In cells and extracts the contact can be indirect. Some results given as binding are weak or reduced against the parent protein; the word gives no strength. Tags and fused reporters may be left off the sequences shown.

Columns and labels:
[1] = biological target: T1, GFP-CUP (full length) (Drosophila melanogaster) (UniProt Q9VMA3); assay: co-IP + pull-down; S2 cell lysates; tagged 4E-BPs and endogenous eIF4E; pull-downs on m7GTP beads, 1 h at 4 °C, washes in NET buffer (50 mM Tris pH 7.4, 150 mM NaCl, 1 mM EDTA, 0.1% Triton X-100); western blot
T1 sequence: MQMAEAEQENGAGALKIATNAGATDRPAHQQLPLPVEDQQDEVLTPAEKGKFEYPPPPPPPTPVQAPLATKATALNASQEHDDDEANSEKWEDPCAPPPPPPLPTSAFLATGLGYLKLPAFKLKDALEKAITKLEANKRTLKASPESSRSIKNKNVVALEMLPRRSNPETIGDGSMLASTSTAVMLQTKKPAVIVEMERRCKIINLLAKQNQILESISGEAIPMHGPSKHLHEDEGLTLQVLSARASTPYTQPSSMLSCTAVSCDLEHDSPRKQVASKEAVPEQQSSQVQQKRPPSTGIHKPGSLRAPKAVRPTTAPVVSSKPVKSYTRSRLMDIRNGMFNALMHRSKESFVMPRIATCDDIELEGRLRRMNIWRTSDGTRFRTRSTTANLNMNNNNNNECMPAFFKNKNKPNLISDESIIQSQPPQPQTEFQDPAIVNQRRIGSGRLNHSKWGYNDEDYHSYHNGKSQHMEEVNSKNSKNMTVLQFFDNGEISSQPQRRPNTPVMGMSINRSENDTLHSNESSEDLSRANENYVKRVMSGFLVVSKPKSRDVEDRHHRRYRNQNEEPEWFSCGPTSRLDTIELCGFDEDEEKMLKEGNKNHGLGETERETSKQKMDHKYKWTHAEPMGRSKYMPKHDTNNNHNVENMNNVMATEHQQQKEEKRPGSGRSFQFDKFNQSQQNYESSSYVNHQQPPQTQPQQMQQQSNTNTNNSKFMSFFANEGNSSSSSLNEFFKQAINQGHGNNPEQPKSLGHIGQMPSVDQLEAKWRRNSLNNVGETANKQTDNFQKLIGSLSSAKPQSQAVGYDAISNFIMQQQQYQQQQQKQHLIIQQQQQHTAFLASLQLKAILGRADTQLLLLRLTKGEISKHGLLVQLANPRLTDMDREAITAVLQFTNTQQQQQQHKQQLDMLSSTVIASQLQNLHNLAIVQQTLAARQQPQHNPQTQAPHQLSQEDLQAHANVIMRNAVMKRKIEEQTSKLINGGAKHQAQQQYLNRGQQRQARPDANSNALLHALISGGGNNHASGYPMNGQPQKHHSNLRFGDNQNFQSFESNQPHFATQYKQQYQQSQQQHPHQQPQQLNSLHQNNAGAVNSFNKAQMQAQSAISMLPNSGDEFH

[2] = biological target: T2, HA-Thor (full length, WT) (Drosophila melanogaster) (UniProt Q9XZ56); assay: as above
T2 sequence: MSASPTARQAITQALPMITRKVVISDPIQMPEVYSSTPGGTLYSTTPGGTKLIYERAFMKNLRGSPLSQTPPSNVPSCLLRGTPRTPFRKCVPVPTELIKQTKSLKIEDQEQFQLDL

[3] = biological target: T3, GFP-4E-T (full length, WT) (Drosophila melanogaster) (UniProt Q8IH18); assay: as above
T3 sequence: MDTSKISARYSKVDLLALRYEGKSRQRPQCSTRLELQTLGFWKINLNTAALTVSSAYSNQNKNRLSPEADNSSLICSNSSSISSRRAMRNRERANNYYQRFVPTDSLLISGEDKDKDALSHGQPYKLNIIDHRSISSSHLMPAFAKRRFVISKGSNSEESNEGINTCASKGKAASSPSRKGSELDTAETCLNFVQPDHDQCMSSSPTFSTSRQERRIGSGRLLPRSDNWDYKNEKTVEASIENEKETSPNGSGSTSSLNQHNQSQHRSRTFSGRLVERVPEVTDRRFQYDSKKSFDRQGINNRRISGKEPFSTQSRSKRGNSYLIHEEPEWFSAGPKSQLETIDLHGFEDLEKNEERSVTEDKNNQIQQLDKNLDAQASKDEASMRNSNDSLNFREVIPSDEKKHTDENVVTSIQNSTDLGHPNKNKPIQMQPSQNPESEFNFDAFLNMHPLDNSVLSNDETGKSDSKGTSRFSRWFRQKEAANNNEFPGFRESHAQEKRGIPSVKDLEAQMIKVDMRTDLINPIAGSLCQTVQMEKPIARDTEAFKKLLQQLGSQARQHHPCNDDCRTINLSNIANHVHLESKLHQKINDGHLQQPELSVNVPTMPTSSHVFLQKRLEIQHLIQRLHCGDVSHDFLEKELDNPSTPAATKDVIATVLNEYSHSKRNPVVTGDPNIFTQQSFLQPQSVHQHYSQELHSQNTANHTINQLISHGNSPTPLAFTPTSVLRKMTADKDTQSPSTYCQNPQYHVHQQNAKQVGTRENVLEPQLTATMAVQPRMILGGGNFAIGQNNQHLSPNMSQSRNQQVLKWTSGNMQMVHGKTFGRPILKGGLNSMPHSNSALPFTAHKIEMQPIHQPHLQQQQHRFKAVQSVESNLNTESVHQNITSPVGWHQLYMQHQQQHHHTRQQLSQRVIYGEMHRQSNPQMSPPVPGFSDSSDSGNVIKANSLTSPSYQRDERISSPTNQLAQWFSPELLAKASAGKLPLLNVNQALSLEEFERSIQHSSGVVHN

[4] = biological target: T4, HA-Thor (full length, NC*) (Drosophila melanogaster) (UniProt Q9XZ56); assay: co-IP; S2 cell lysates; HA-Thor precipitated with anti-HA or GFP-4E-T with anti-GFP antibodies; endogenous eIF4E detected by western blot
T4 sequence: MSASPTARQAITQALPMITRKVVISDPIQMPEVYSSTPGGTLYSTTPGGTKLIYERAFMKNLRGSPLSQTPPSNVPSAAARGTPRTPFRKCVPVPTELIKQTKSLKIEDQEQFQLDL

[5] = biological target: T5, HA-Thor (full length, Arg81, Gly82 and Thr83 to alanine) (Drosophila melanogaster) (UniProt Q9XZ56); assay: as above
T5 sequence: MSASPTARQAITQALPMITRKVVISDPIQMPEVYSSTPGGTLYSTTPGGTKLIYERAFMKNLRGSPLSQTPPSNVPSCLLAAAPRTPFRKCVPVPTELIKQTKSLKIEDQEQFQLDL

[6] = biological target: T2, HA-Thor (full length, WT) (Drosophila melanogaster); assay: as above
[7] = biological target: T6, HA-Thor (full length, ΔNC) (Drosophila melanogaster) (UniProt Q9XZ56); assay: as above
T6 sequence: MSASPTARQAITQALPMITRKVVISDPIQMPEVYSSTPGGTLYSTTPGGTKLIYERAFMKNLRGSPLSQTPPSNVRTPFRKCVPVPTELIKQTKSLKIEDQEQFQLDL

[8] = biological target: T3, GFP-4E-T (full length, WT) (Drosophila melanogaster); assay: as above

binding [1]: binds
binding [2]: binds
binding [3]: binds
binding [4]: binds
binding [5]: binds
binding [6]: binds
binding [7]: no binding
binding [8]: binds
B1: endogenous eIF4E (S2 cells) (protein, UniProt P48598 1-259)
chain: MQSDFHRMKNFANPKSMFKTSAPSTEQGRPEPPTSAAAPAEAKDVKPKEDPQETGEPAGNTATTTAPAGDDAVRTEHLYKHPLMNVWTLWYLENDRSKSWEDMQNEITSFDTVEDFWSLYNHIKPPSEIKLGSDYSLFKKNIRPMWEDAANKQGGRWVITLNKSSKTDLDNLWLDVLLCLIGEAFDHSDQICGAVINIRGKSNKISIWTADGNNEEAALEIGHKLRDALRLGRNNSLQYQLHKDTMVKQGSNVKSIYTL
